# Measurements: the supplement of paper PMC10849652
# Amino acid sequences for entries named in this document (tags omitted). A change or cut given only in a name is not applied to a line headed by its entry.
# UniProt P35244: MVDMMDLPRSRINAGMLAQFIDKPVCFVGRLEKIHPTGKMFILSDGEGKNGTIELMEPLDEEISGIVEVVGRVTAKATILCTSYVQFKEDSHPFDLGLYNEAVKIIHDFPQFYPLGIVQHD
# UniProt Q15287: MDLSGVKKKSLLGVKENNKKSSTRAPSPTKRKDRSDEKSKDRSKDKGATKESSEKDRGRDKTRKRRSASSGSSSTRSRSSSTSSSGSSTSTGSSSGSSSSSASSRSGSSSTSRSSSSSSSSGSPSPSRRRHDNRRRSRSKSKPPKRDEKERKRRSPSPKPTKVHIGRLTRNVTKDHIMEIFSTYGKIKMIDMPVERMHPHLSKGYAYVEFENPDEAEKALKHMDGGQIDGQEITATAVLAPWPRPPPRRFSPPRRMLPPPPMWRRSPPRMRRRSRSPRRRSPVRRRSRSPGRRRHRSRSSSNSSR
# UniProt O95059: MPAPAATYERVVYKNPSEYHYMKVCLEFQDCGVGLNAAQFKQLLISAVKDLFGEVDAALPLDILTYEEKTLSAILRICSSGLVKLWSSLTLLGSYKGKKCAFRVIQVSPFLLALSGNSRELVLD
# UniProt Q86UA6: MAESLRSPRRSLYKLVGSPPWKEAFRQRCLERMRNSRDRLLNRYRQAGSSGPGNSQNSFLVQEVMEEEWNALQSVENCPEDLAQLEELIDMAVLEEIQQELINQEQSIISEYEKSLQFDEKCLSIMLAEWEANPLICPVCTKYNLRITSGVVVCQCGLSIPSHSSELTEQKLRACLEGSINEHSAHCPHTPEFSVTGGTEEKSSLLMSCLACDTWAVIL
# UniProt P31350, whole entry, looked up: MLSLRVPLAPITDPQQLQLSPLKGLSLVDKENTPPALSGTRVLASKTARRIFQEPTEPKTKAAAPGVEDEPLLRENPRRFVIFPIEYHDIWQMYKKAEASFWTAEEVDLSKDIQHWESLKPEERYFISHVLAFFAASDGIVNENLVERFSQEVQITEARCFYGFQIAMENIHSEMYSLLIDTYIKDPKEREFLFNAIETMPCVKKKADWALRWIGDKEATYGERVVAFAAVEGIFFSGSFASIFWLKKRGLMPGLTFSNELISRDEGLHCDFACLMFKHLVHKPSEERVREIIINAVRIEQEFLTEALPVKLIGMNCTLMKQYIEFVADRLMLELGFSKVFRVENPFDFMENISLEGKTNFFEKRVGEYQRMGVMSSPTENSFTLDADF
# UniProt O60942: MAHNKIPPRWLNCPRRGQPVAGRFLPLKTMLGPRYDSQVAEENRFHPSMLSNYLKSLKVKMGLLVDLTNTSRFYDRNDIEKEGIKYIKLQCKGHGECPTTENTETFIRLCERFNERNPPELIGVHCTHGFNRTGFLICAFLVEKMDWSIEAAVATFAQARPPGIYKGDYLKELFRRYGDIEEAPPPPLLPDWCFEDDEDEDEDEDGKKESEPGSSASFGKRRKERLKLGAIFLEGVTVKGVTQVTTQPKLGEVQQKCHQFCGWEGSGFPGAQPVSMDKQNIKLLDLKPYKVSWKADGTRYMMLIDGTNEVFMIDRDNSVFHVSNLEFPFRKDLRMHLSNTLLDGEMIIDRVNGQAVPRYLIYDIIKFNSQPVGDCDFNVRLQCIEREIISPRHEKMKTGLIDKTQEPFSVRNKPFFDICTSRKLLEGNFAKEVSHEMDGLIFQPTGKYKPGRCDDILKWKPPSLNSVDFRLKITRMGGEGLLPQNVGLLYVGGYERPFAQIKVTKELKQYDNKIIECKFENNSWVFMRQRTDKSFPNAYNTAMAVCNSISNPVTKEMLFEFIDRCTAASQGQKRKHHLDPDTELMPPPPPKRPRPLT
# UniProt P78345: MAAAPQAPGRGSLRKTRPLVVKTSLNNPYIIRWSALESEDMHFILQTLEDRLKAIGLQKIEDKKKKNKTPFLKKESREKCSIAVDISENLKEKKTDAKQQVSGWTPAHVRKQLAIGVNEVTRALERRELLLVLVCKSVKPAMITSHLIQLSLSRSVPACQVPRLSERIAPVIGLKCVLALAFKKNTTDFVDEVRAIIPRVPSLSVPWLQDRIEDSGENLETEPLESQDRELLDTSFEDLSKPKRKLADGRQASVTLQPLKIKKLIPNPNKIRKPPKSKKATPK
# UniProt P27694, whole entry, looked up: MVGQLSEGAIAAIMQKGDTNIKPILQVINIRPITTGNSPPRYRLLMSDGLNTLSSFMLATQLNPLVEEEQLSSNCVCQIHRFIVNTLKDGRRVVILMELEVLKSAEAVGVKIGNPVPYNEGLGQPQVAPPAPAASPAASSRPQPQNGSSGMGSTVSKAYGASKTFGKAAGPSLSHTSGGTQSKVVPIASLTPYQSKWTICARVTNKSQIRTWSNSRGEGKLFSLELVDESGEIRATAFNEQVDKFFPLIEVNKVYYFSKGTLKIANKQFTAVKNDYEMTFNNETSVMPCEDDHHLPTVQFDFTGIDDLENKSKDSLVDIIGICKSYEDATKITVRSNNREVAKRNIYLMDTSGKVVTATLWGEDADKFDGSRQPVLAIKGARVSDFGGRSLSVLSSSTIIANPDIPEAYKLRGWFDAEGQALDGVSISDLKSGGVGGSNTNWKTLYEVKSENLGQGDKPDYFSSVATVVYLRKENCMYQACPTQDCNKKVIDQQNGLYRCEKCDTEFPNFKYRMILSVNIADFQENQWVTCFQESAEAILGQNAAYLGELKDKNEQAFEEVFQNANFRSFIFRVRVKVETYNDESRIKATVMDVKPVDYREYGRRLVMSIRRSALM
# UniProt Q9UBF6, whole entry, looked up: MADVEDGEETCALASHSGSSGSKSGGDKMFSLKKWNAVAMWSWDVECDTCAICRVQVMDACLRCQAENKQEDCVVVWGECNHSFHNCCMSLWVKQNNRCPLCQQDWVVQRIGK
# UniProt P23443: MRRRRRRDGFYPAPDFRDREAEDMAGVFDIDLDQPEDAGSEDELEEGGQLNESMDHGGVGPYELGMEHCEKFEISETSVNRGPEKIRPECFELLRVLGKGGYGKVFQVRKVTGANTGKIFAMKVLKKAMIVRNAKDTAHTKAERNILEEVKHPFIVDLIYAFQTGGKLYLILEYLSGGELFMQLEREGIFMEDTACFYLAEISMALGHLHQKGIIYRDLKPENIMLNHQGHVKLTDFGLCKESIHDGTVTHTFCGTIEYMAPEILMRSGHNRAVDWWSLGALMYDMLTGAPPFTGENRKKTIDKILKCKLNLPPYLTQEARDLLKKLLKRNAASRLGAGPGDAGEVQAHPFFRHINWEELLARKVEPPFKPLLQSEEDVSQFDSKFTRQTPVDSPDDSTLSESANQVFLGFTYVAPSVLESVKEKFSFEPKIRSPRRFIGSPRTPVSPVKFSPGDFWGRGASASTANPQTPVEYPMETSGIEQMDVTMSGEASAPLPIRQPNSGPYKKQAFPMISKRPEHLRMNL
# UniProt P10155: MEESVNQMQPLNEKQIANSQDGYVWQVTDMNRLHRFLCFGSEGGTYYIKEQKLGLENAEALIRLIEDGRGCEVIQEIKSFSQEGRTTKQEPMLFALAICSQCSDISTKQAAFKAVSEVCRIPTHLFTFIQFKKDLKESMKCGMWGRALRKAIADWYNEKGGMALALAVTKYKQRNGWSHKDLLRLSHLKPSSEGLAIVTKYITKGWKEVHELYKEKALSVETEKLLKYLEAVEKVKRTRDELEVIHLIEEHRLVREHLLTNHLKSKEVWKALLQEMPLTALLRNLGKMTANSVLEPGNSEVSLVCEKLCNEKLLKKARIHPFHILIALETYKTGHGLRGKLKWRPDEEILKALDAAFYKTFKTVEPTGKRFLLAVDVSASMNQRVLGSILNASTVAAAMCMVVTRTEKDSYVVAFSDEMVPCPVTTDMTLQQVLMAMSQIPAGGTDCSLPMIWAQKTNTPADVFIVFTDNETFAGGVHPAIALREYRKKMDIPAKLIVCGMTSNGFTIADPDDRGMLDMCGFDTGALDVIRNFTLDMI
# UniProt Q9H4A4: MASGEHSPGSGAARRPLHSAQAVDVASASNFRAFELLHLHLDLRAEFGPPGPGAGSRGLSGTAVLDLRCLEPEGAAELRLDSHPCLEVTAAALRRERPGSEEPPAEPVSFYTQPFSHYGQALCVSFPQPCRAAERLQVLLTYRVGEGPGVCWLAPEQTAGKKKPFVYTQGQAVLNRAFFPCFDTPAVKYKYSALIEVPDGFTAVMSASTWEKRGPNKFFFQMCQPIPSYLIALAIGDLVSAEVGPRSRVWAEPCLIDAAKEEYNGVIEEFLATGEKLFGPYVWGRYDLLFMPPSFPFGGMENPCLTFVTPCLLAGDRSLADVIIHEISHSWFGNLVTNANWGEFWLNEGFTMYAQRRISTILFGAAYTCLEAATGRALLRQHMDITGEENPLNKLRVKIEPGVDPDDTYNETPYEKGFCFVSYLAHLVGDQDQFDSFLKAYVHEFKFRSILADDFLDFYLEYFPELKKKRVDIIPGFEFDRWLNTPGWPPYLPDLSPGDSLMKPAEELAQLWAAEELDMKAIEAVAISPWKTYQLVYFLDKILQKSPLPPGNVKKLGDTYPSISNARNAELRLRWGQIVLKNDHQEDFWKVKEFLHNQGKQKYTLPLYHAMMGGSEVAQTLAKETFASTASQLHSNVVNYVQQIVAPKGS
# UniProt Q8N5L8: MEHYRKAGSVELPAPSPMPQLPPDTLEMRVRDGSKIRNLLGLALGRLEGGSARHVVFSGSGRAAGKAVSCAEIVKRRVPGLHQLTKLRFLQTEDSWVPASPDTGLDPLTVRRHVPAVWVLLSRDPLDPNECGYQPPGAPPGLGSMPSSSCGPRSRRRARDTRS
# UniProt P05387, whole entry, looked up: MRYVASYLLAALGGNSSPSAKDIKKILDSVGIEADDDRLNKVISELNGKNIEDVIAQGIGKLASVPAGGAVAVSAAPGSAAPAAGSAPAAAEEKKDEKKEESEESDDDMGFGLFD
# UniProt Q96S38: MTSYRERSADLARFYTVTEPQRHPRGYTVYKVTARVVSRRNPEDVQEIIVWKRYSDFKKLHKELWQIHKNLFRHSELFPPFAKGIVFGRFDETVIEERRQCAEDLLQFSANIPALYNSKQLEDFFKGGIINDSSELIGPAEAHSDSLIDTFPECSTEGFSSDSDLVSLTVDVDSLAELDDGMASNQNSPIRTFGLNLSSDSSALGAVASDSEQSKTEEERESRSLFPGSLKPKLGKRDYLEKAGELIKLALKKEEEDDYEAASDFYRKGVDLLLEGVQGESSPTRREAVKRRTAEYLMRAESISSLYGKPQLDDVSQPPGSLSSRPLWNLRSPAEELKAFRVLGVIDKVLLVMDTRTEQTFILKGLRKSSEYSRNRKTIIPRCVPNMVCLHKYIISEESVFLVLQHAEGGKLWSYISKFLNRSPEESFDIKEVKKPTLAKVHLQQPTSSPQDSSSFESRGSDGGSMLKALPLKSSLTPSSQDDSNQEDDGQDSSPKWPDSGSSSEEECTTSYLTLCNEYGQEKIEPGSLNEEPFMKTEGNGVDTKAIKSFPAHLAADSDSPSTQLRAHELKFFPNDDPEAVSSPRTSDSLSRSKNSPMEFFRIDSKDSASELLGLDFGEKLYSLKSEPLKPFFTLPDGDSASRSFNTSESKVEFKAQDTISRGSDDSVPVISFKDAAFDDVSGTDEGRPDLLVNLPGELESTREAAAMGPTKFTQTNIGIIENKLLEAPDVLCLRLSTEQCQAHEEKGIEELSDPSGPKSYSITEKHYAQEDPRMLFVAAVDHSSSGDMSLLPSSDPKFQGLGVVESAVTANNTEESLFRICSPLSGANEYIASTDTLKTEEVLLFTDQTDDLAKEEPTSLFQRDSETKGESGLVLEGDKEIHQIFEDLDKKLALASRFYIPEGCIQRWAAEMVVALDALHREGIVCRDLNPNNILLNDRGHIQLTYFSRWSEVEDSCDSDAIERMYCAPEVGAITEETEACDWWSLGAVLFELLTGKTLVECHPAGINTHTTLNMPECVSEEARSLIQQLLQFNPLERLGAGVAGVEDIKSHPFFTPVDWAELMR
# UniProt P04844: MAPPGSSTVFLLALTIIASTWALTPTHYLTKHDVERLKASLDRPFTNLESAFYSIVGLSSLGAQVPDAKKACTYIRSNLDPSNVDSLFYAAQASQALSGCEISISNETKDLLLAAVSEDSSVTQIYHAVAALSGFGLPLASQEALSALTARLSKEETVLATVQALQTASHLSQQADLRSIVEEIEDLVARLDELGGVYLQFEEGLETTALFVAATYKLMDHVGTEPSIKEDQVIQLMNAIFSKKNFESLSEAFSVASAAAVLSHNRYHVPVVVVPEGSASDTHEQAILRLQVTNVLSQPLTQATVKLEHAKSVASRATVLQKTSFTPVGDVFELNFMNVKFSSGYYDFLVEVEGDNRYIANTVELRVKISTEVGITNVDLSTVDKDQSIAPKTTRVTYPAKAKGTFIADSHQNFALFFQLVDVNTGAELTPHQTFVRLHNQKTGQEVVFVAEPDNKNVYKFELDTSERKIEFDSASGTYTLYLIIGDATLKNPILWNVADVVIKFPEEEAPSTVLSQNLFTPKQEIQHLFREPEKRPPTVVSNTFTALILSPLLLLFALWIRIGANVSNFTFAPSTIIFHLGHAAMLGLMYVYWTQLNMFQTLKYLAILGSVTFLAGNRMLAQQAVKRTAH
# The list shows a part of the results.
# Assays:
# Test in all cases: log2 fold change, soluble protein after heating vs DMSO (PISA); higher = thermal stabilisation; K562 cells, 10 uM, 30 min; active = over 0.2 and 3.5 SD of the protein, either way, in both replicates (recomputed)
# [1] = compound: CC1=C(C=C(C=C1)NC(=O)C2=CC(=CC=C2)C(C)(C)C#N)NC3=CC4=C(C=C3)N=CN(C4=O)C
# Procedure, shortened: (§1)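 K562 cells at 2×10^6 cells/mL were given 10 μM compound for 30 min. Aliquots then went through 3 min of heating across 48°C-58°C, were pooled, and were extracted in PBS with 0.5% NP-40 at 4°C, and the supernatant after 21,000xg for 90 min was quantified by TMTpro 16plex LC-MS/MS with channel sums equalised. Thermal stability relative to control samples, from duplicates, is given as log2 fold change.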
# [2] = compound: CC1=C(C=C(C=C1)NC(=O)C2=CC(=CC=C2)N(C)C)NC(=O)C3=CC=C(C=C3)O
# Procedure, shortened: as §1
# [3] = compound: CC1=CC=C(C=C1)SC2=C3C=C(SC3=CN=C2)C(=O)N
# Procedure, shortened: as §1
# [4] = compound: CC1=NC(=CC=C1)C2=C(N=C(N2)C(C)(C)C)C3=CC4=NC=CN=C4C=C3
# Procedure, shortened: as §1
# Nexturastat A = compound: CCCCN(Cc1ccc(C(=O)NO)cc1)C(=O)Nc1ccccc1 [Nexturastat A]
# Procedure, shortened: as §1
# vemurafenib = compound: CCCS(=O)(=O)Nc1ccc(F)c(C(=O)c2c[nH]c3ncc(-c4ccc(Cl)cc4)cc23)c1F [vemurafenib]
# Procedure, shortened: as §1
# [5] = compound: CCCS(=O)(=O)Nc1ccc(F)c(C(=O)c2c[nH]c3ncc(Cl)cc23)c1F
# Procedure, shortened: as §1
# [6] = compound: CCCc1cc(C)[nH]c(=O)c1CNC(=O)c1cc(-c2ccnc(N3CCN(C)CC3)c2)cc2c1cnn2C(C)C
# Procedure, shortened: as §1
# givinostat = compound: CCN(CC)Cc1ccc2cc(COC(=O)Nc3ccc(C(=O)NO)cc3)ccc2c1 [givinostat]
# Procedure, shortened: as §1
# barasertib = compound: CCN(CCCOc1ccc2c(Nc3cc(CC(=O)Nc4cccc(F)c4)[nH]n3)ncnc2c1)CCOP(=O)(O)O [barasertib]
# Procedure, shortened: as §1
Target,log2 fold change [1],log2 fold change [2],log2 fold change [3],log2 fold change [4],log2 fold change (Nexturastat A),log2 fold change (vemurafenib),log2 fold change [5],log2 fold change [6],log2 fold change (givinostat),log2 fold change (barasertib)
RPL30 (UniProt P62888),inactive: 0.017,inactive: -0.018,inactive: -0.068,inactive: -0.216,inactive: 0.371,inactive: -0.229,inactive: -0.047,inactive: 0.202,inactive: 0.07,inactive: -0.184
RP2 (UniProt O75695),inactive: 0.146,inactive: -0.084,inactive: -0.037,inactive: 0.038,inactive: 0.035,inactive: -0.047,inactive: 0.016,inactive: -0.111,inactive: -0.097,inactive: -0.049
RPA3 (UniProt P35244),inactive: 0.076,inactive: -0.059,inactive: 0.111,inactive: 0.014,inactive: 0.091,active: 0.298,inactive: 0.053,inactive: -0.044,inactive: -0.109,inactive: 0.066
RNPS1 (UniProt Q15287),inactive: -0.043,inactive: 0.015,inactive: 0.017,inactive: 0.031,inactive: 0.245,inactive: -0.001,inactive: -0.033,inactive: -0.024,inactive: 0.071,inactive: 0.015
RPL28 (UniProt P46779),inactive: 0.037,inactive: 0,inactive: 0.013,inactive: -0.199,inactive: 0.393,inactive: -0.263,inactive: -0.118,inactive: 0.298,inactive: 0.09,inactive: -0.171
RPRD1B (UniProt Q9NQG5),inactive: 0.007,inactive: -0.021,inactive: -0.029,inactive: 0.101,inactive: -0.054,inactive: 0.05,inactive: 0.07,inactive: -0.057,inactive: -0.064,inactive: 0.007
RPS15 (UniProt P62841),inactive: -0.014,inactive: 0.038,inactive: -0.146,inactive: 0.005,inactive: 0.285,inactive: -0.117,inactive: -0.175,inactive: 0.1,inactive: -0.041,inactive: -0.125
RPL35 (UniProt P42766),inactive: -0.017,inactive: 0.053,inactive: -0.067,inactive: -0.112,inactive: 0.271,inactive: -0.147,inactive: -0.121,inactive: 0.121,inactive: 0.04,inactive: -0.111
RPP14 (UniProt O95059),inactive: 0.086,inactive: 0.01,inactive: -0.031,inactive: -0.015,inactive: 0.129,inactive: -0.004,inactive: 0.004,inactive: -0.037,inactive: -0.116,inactive: -0.087
RPL36 (UniProt Q9Y3U8),inactive: 0.032,inactive: -0.034,inactive: -0.026,inactive: -0.24,inactive: 0.373,inactive: -0.222,inactive: -0.087,inactive: 0.231,inactive: 0.08,inactive: -0.181
RPL26 (UniProt P61254),inactive: 0.097,inactive: 0.205,inactive: -0.108,inactive: -0.067,inactive: 0.354,inactive: -0.198,inactive: -0.205,inactive: 0.408,inactive: -0.036,inactive: -0.192
RPAIN isoform 8 (UniProt Q86UA6),inactive: 0.009,inactive: 0.038,inactive: -0.098,inactive: 0.136,inactive: -0.017,inactive: -0.062,inactive: 0.042,–,–,inactive: 0.029
RRM2 isoform 2 (UniProt P31350),inactive: 0.002,inactive: -0.008,inactive: 0.025,inactive: 0.034,inactive: -0.001,inactive: 0.021,inactive: 0.013,inactive: -0.033,inactive: -0.07,inactive: -0.027
RNGTT (UniProt O60942),inactive: 0.069,inactive: -0.064,inactive: 0.087,inactive: 0.026,inactive: -0.132,inactive: 0.031,inactive: 0.115,inactive: 0.043,inactive: 0.006,inactive: 0.07
RPP38 (UniProt P78345),inactive: -0.011,inactive: 0.008,inactive: -0.07,inactive: -0.01,inactive: -0.007,inactive: -0.067,inactive: -0.032,inactive: 0.013,inactive: -0.008,inactive: -0.022
RPA1 (UniProt P27694),inactive: 0.028,inactive: -0.047,inactive: -0.002,inactive: 0.05,inactive: 0.044,inactive: 0.039,inactive: 0.125,inactive: 0.104,inactive: 0.069,inactive: 0.068
RNF7 (UniProt Q9UBF6),inactive: -0.016,inactive: -0.038,inactive: -0.055,inactive: -0.008,inactive: -0.039,inactive: 0.037,inactive: 0.054,inactive: -0.065,inactive: -0.057,inactive: -0.032
RPS6KB1 (UniProt P23443),inactive: 0.035,inactive: -0.002,inactive: 0.011,inactive: -0.057,inactive: -0.069,inactive: 0.012,inactive: 0.012,inactive: -0.09,inactive: -0.018,inactive: 0.002
RPS23 (UniProt P62266),inactive: 0.05,inactive: 0.051,inactive: -0.086,inactive: -0.108,inactive: 0.267,inactive: -0.186,inactive: -0.065,inactive: 0.113,inactive: -0.022,inactive: -0.121
RO60 (UniProt P10155),inactive: -0.046,inactive: 0,inactive: -0.005,inactive: 0.046,inactive: -0.146,inactive: -0.037,inactive: 0.006,inactive: -0.046,inactive: -0.037,inactive: 0.004
RPS29 (UniProt P62273),inactive: 0.091,inactive: 0.144,inactive: -0.003,inactive: -0.019,inactive: 0.26,inactive: -0.225,inactive: -0.203,inactive: 0.258,inactive: -0.064,inactive: -0.059
RNPEP (UniProt Q9H4A4),inactive: 0.032,inactive: -0.024,inactive: 0.002,inactive: 0.023,inactive: -0.023,inactive: 0.058,inactive: 0.052,inactive: -0.013,inactive: -0.112,inactive: 0.036
RRAGB (UniProt Q5VZM2),inactive: 0.013,inactive: 0.018,inactive: 0.011,inactive: -0.01,inactive: -0.071,inactive: 0.001,inactive: 0.028,inactive: -0.023,inactive: -0.044,inactive: -0.004
RPS17 (UniProt P08708),inactive: 0.028,inactive: 0.025,inactive: -0.027,inactive: -0.026,inactive: 0.149,inactive: -0.032,inactive: -0.063,inactive: 0.173,inactive: 0.003,inactive: -0.075
RPP25L (UniProt Q8N5L8),inactive: -0.028,inactive: -0.015,inactive: 0.036,inactive: 0.02,inactive: -0.01,inactive: -0.034,inactive: -0.035,inactive: -0.048,inactive: -0.073,inactive: -0.025
RPS21 (UniProt P63220),inactive: -0.007,inactive: 0.01,inactive: -0.042,inactive: -0.007,inactive: -0.033,inactive: -0.077,inactive: -0.072,inactive: -0.038,inactive: -0.015,inactive: -0.016
RPLP2 (UniProt P05387),inactive: -0.054,inactive: 0,inactive: -0.109,inactive: -0.161,inactive: 0.338,inactive: -0.056,inactive: -0.088,inactive: 0.221,inactive: 0.038,inactive: -0.151
RPS6KC1 (UniProt Q96S38),inactive: -0.023,inactive: 0.04,inactive: -0.017,inactive: 0.01,inactive: 0.214,inactive: 0.055,inactive: 0.014,inactive: -0.211,inactive: 0.12,inactive: 0.008
RPL9 (UniProt P32969),inactive: 0.022,inactive: 0,inactive: 0,inactive: -0.214,inactive: 0.397,inactive: -0.264,inactive: -0.111,inactive: 0.257,inactive: 0.042,inactive: -0.199
RPN2 (UniProt P04844),inactive: 0.003,inactive: 0.031,inactive: 0.018,inactive: 0.019,inactive: -0.076,inactive: 0.017,inactive: 0.043,inactive: -0.025,inactive: 0.002,inactive: -0.011

# Single entries from the list.
# log2 fold change [5] with RPS17 (UniProt P08708) is entered as inactive: -0.063
# log2 fold change [5] with RNPEP (UniProt Q9H4A4) is entered as inactive: 0.052
